Laboratory results: the supplement of paper PMC7646827
Counter-ions that a name gives are not always drawn. Repeats are few or missing, and single values can be far off.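 All cells are established human bladder cancer lines, one derived from a patient-derived xenograft. A luminescent ATP assay measured viability as percent inhibition relative to vehicle across seven dilutions. The paper rates scores above 59 very active, 30–59 active, 21–29 semi-active, 9–20 low active, below 9 inactive.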

Assays:
Experiment in all cases: drug sensitivity score DSS3 (score 0-100); higher = more sensitive; extreme values may be limits of the assay
Conditions in all cases: culture: 3D, ultra-low attachment; treatment time: 5 days
5637 = tested on: 5637
BC8149 = tested on: BC8149
J82 = tested on: J82
SCaBER = tested on: SCaBER
SW780 = tested on: SW780
TCCSUP = tested on: TCCSUP
UM-UC-12 = tested on: UM-UC-12
UM-UC-14 = tested on: UM-UC-14
UM-UC-15 = tested on: UM-UC-15
UM-UC-17 = tested on: UM-UC-17
UM-UC-18 = tested on: UM-UC-18
UM-UC-1 = tested on: UM-UC-1
UM-UC-5 = tested on: UM-UC-5
UM-UC-6 = tested on: UM-UC-6
UM-UC-9 = tested on: UM-UC-9
T-24 = tested on: T-24

| SMILES | drug sensitivity score DSS3 5637 | drug sensitivity score DSS3 (BC8149) | drug sensitivity score DSS3 (J82) | drug sensitivity score DSS3 (SCaBER) | drug sensitivity score DSS3 (SW780) | drug sensitivity score DSS3 (TCCSUP) | drug sensitivity score DSS3 (UM-UC-12) | drug sensitivity score DSS3 (UM-UC-14) | drug sensitivity score DSS3 (UM-UC-15) | drug sensitivity score DSS3 (UM-UC-17) | drug sensitivity score DSS3 (UM-UC-18) | drug sensitivity score DSS3 (UM-UC-1) | drug sensitivity score DSS3 (UM-UC-5) | drug sensitivity score DSS3 (UM-UC-6) | drug sensitivity score DSS3 (UM-UC-9) | drug sensitivity score DSS3 (T-24) |
| --- | --- | --- | --- | --- | --- | --- | --- | --- | --- | --- | --- | --- | --- | --- | --- | --- |
| O=C(Nc1cccnc1)N1CCC(Cc2cccc(Oc3ccc(C(F)(F)F)cn3)c2)CC1 [PF-3845] (max dose 10000 nM) | 0.113 | 0 | 0 | 4.02 | 0.575 | 0 | 0.0307 | 2.02 | 0 | 0 | 0.673 | 1.71 | 1.28 | 0.711 | 0.687 |  |
| Cc1ccc([C@@H]2O[C@H](CO)[C@@H](O)[C@H](O)[C@H]2O)cc1Cc1ccc(-c2ccc(F)cc2)s1 [Canagliflozin hemihydrate] (max dose 10000 nM) | 0 | 0 | 0 | 0 | 0 | 0 |  | 0 | 0 | 0 | 0 | 0 | 0 | 4 | 0 | 0 |
| CO[C@H]1C[C@@H]2CC[C@@H](C)[C@@](O)(O2)C(=O)C(=O)N2CCCC[C@H]2C(=O)O[C@H]([C@H](C)C[C@@H]2CC[C@@H](O)[C@H](OC)C2)CC(=O)[C@H](C)/C=C(\C)[C@@H](O)[C@@H](OC)C(=O)[C@H](C)C[C@H](C)/C=C/C=C/C=C/1C [Rapamycin (Sirolimus)] (max dose 10000 nM) | 0 | 32.7 | 0 |  | 0 | 39.5 | 15.4 | 14.5 | 0 | 0 |  |  |  | 7.21 | 0 | 0 |
| Cc1cc(Nc2ncnc3ccc(NC4=NC(C)(C)CO4)cc23)ccc1Oc1ccn2ncnc2c1 [Irbinitinib] (max dose 10000 nM) | 0 | 0 | 0 | 0 | 1.18 | 0.38 |  | 0 | 0 | 0 | 0.384 | 0.0862 | 0 | 0.782 | 0.0611 | 0 |
| Cc1ccc2nc(NCCN)c3ncc(C)n3c2c1 (max dose 10000 nM) | 0 |  | 0 | 0 | 0 |  |  | 0 | 0 |  |  |  |  |  |  | 0 |
| C[C@H](NC(=O)c1c(N)nn2cccnc12)c1cc2cccc(C#Cc3cnn(C)c3)c2c(=O)n1-c1ccccc1 [IPI-549] (max dose 10000 nM) | 0 | 0.5 | 0 | 0.302 | 0 | 0.372 | 0 | 0.125 | 0 | 0 | 0 | 0 | 0 | 0 | 0 |  |
| Cc1nc(Nc2ncc(C(=O)Nc3c(C)cccc3Cl)s2)cc(N2CCN(CCO)CC2)n1 [Dasatinib] (max dose 10000 nM) | 1.73 | 0 | 4.72 | 27.8 | 0.575 |  |  | 0 | 0 | 0 | 0.734 | 0.0229 | 0 | 0.425 | 0 | 15.5 |
| O=C(Nc1ccc([N+](=O)[O-])cc1O)Nc1ccccc1Br (max dose 10000 nM) | 8.01 |  |  |  |  | 9.18 | 1.84 | 5.36 |  | 8.32 |  | 9.32 |  | 6.12 | 0 | 0 |
| COc1cc2c(cc1OC)[C@H]1C[C@@H](OC(=O)[C@@H](N)C(C)C)[C@H](CC(C)C)CN1CC2 [Valbenazine tosylate] (max dose 10000 nM) | 0 | 1.83 | 0.23 |  | 0.914 | 0 | 1.36 | 0 | 0 | 0 | 0 | 0 | 0 | 0 | 0 | 0 |
| O=C(Nc1cccc(Cl)c1)Nc1ncc(CCNc2ncnc3ccsc23)s1 [SNS-314 Mesylate] (max dose 10000 nM) | 51.6 | 24.7 | 3.27 |  | 0 | 62.9 | 21.5 | 23.2 | 0 | 4.19 | 6.65 | 14.3 | 0 | 16.9 | 0 | 0 |
| Cc1[nH]c(/C=C2\C(=O)Nc3ccc(S(=O)(=O)N(C)c4cccc(Cl)c4)cc32)c(C)c1C(=O)N1CCN(C)CC1 (max dose 10000 nM) | 55.2 | 22.6 |  | 17.9 | 20.3 | 25.2 |  | 15.2 | 0 | 15.7 |  | 8.67 | 22.5 | 10.3 | 20.4 | 0 |
| CC(C)OC(=O)C1=CN(C(=O)c2ccc(F)c(F)c2)CC(C)(C)c2c1[nH]c1ccccc21 [XL335] (max dose 10000 nM) | 22.4 | 20.1 | 0 |  | 27.4 | 35.1 | 21.9 |  | 0.0905 | 30.2 |  | 19.8 | 15.2 | 10.9 |  | 12.2 |
| O=C(NC[C@H](O)CO)c1ccncc1Nc1ccc(I)cc1F (max dose 10000 nM) | 2.91 |  | 0.000512 | 30.5 | 0 | 2.3 | 0.971 | 1.25 | 12.4 |  | 0 | 1.66 | 24.4 | 0.692 | 0 | 3.23 |
| COc1ccc(COc2ccc(Cc3cnc(N)nc3N)cc2OC)cc1 [GW2580] (max dose 10000 nM) | 3.84 |  | 0 | 1.72 | 0.00822 | 0 | 1.29 | 0 | 0 | 0 | 0 |  | 0 | 0.384 | 2.47 | 1.12 |
| CN(C)/N=N/c1[nH]cnc1C(N)=O [Dacarbazine] (max dose 10000 nM) | 30.4 | 11.1 | 0.441 | 16.7 | 0 | 18.3 | 0 | 6.26 |  | 0 | 0 |  | 0 | 0.00151 | 0.298 | 0 |
| CC(C)n1c(/C=C/C(O)CC(O)CC(=O)O)c(-c2ccc(F)cc2)c2ccccc21 (stereo not given) [Fluvastatin Sodium] (max dose 10000 nM) | 35.1 |  |  | 0 | 0 | 0 | 27.7 | 0 | 0 | 0 | 25.2 | 0.928 | 0.201 | 2.4 | 0 | 6.88 |
| COc1cc2ncnc(Nc3ccc(F)c(Cl)c3)c2cc1OCCCN1CCOCC1 [Gefitinib (ZD1839)] (max dose 10000 nM) | 14.8 |  |  | 26.6 | 0 | 9.54 | 33.7 |  | 13.7 |  |  |  | 0 | 14.2 | 8.15 |  |
| Cn1cc(-c2ccc3nnc(C(F)(F)c4ccc5ncccc5c4)n3n2)cn1 (max dose 10000 nM) | 0 |  | 0 | 0 | 0 | 33.6 | 0 |  | 0 |  |  | 0 | 0 | 0 | 0 | 0.274 |
| Cc1csc(-c2nnc(Nc3ccc(Oc4ncccc4-c4ccnc(N)n4)cc3)c3ccccc23)c1 [AMG-900] (max dose 10000 nM) | 78.4 | 27.1 | 0 | 20.8 | 0 | 81.4 | 28.2 | 57 | 0 |  | 47.4 | 52.3 | 0 | 44.6 | 0.0348 |  |
| CCOc1ccccc1-n1c(C(C)N2CCN(C(=O)COc3ccc(Cl)cc3)CC2)nc2ccccc2c1=O (stereo not given) [Erastin] (max dose 10000 nM) | 0.66 |  | 0.0282 | 0.621 | 0 | 1.92 | 0.916 | 1.35 | 0.71 | 0.476 | 0 | 0.691 | 3.82 | 0 | 2.26 | 0 |
| O=C(Cc1ccccc1)Nc1nnc(CCSCCc2nnc(NC(=O)Cc3ccccc3)s2)s1 [BPTES] (max dose 10000 nM) | 0.228 |  | 0 | 0 | 0 | 1.87 | 0.915 | 0 | 13.7 | 0.103 | 0 | 0.634 | 0.0827 | 0 | 0 | 0.384 |
| COc1cc(-c2cn[nH]c2)ccc1C(=O)Nc1ccc2c(c1)CCNCC2 (max dose 10000 nM) | 1.8 |  | 0 |  | 0 | 0 | 0 | 0 | 0 | 0 | 0 |  | 0 | 0 | 0 |  |
| C=CC(=O)Nc1cc(Nc2nccc(-c3cn(C)c4ccccc34)n2)c(OC)cc1N(C)CCN(C)C [Osimertinib] (max dose 10000 nM) | 36.4 | 11.1 | 0 | 14.4 | 3.63 | 7 | 4.52 | 0.701 | 0 | 0.403 | 29.4 | 0.0934 | 0 | 7.61 | 11.3 |  |

Some of the entries above in a different format.
SMILES	drug sensitivity score DSS3 5637	drug sensitivity score DSS3 (BC8149)	drug sensitivity score DSS3 (J82)	drug sensitivity score DSS3 (SCaBER)	drug sensitivity score DSS3 (SW780)	drug sensitivity score DSS3 (TCCSUP)	drug sensitivity score DSS3 (UM-UC-12)	drug sensitivity score DSS3 (UM-UC-14)	drug sensitivity score DSS3 (UM-UC-15)	drug sensitivity score DSS3 (UM-UC-17)	drug sensitivity score DSS3 (UM-UC-18)	drug sensitivity score DSS3 (UM-UC-1)	drug sensitivity score DSS3 (UM-UC-5)	drug sensitivity score DSS3 (UM-UC-6)	drug sensitivity score DSS3 (UM-UC-9)	drug sensitivity score DSS3 (T-24)
Cc1cc(Nc2ncnc3ccc(NC4=NC(C)(C)CO4)cc23)ccc1Oc1ccn2ncnc2c1 [Irbinitinib] (max dose 10000 nM)	0	0	0	0	1.18	0.38		0	0	0	0.384	0.0862	0	0.782	0.0611	0
Cc1ccc2nc(NCCN)c3ncc(C)n3c2c1 (max dose 10000 nM)	0		0	0	0			0	0							0
